Measurements reported in patent publication US10155802B2, “Locally-active anticoagulants and anti-inflammatory agents” (priority 2011, dated 2018).
Some entries share one result that the patent states for a list of compounds.

Protein sequences, listed by entry. Tags and fused reporters are not part of them. Residues count along the entry.
UniProt P02454, 152-1207: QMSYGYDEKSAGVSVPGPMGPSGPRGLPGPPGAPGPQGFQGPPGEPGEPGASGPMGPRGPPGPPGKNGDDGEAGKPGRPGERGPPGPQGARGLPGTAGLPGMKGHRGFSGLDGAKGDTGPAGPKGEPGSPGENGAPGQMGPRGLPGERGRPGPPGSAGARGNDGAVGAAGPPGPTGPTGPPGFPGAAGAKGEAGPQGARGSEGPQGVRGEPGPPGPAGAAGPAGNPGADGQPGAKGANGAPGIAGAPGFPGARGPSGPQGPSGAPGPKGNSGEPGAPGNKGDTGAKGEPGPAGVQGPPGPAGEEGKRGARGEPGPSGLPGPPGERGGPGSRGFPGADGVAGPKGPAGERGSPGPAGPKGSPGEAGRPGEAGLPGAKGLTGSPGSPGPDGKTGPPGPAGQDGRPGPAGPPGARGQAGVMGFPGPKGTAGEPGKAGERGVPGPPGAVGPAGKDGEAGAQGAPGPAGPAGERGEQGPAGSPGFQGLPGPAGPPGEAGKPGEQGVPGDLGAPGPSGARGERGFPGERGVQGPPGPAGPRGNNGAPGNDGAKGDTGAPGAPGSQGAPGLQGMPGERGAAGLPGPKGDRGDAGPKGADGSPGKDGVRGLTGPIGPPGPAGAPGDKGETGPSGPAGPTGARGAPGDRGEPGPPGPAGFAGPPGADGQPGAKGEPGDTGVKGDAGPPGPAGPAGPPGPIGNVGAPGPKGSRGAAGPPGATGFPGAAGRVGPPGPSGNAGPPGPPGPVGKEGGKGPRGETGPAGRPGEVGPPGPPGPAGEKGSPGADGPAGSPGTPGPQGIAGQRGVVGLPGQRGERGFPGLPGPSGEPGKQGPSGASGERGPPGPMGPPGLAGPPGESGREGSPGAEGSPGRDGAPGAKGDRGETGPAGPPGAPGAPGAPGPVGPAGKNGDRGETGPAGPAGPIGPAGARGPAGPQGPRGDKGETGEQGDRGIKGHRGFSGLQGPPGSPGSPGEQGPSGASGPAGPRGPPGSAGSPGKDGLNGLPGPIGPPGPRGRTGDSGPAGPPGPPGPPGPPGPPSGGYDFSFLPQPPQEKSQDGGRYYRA
UniProt P02466, 86-1125: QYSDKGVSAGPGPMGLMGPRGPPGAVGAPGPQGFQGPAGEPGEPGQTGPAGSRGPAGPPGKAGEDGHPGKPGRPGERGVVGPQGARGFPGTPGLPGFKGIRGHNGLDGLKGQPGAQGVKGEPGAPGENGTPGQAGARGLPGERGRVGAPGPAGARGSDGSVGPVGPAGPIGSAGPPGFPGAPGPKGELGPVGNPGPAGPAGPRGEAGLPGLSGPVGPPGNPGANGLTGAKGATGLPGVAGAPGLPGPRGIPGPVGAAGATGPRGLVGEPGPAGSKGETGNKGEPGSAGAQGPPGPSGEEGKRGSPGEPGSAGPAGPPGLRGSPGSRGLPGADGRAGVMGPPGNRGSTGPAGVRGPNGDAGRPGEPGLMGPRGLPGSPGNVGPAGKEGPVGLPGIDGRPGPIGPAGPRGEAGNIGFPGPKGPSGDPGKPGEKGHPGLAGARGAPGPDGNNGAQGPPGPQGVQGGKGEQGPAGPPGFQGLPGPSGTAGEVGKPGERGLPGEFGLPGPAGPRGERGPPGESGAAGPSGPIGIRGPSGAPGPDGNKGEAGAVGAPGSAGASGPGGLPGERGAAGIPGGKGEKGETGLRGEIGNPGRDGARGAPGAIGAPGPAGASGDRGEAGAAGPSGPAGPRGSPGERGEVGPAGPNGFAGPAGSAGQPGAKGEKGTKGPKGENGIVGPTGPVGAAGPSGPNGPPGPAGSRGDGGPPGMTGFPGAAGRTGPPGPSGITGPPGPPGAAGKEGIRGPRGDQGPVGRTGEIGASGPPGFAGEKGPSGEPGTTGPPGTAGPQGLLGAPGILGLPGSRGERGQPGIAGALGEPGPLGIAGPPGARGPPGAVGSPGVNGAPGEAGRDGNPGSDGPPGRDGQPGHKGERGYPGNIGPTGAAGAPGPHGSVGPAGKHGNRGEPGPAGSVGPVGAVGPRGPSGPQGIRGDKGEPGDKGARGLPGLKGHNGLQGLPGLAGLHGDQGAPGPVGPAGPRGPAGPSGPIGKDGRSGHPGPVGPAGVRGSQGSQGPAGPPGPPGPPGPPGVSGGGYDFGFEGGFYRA

Target: T1, rat-tail collagen type I (Rattus norvegicus, UniProt P02454+P02466)
T1 construct: purchased BD Bioscience; host or cells: rat tail (tissue-derived)
Experiment: Peptide-collagen binding by reduction of collagen fibril alignment (deuterium coupling constant)
Conditions: collagen gelation under magnetic field in presence of peptide
Text: High-resolution proton NMR spectroscopy is used to illustrate the behavior of the linker peptides […] (SEQ ID NO: 2 or gb1), […] (SEQ ID NO: 3 or trpzip6), […] (SEQ ID NO: 4 or trpzip5) and […] (SEQ ID NO: 5 or trpzip4) in aqueous solutions. The peptides were synthesized using standard Fmoc chemistry and purified by reverse-phase HPLC. Their identity was confirmed by mass-spectroscopy and NMR spectroscopy. For NMR studies, a volume of (400-X) μL of a peptide dissolved in pure water was mixed with 50 μL of a 10×PBS (phosphate-buffered saline) supplemented by sodium phosphate to a final concentration of 50 mM and with 50 μL of deuterated water (D2O) to form the reference sample (where X=0) and with a certain volume (X μL) of rat-tail collagen type I (at 3.6 to 4 mg/ml in 0.02 N acetic acid from BD Bioscience), (where X is adjusted to achieve the desired final concentration of collagen), with 50 μL of the 10× modified PBS and with 50 μL of deuterated water (D2O) to form the peptide-collagen complex. The pH value of the reference peptide samples was adjusted to match the pH of the final peptide-collagen complex in order to facilitate NMR spectral comparison.
The peptide-collagen solutions were subjected to gelation under magnetic field guidance (see Example 7) followed by the measurement of fibril alignment (Ma 2008) as a semi-quantitative indication of peptide-collagen binding. […]

| Sequence | reduction of deuterium coupling constant (degree of collagen fibril alignment) |
| --- | --- |
| GEWTWDDATKTWTVTE (C-terminal amide; trpzip6 linker) | less than 0.5 Hz |
| GEWTYDDATKTFTWTE (C-terminal amide; trpzip5 linker) | less than 0.5 Hz |
